# Laboratory results from article PMC3228759.
# Construct, isoform or probe ends are uncertain for at least one entry.
# Tested on: RBM3 (rRBM3)
# Assay: EMSA
# Details: 30-300 ng rRBM3, tRNA and heparin; EMSA: 5 mM Tris pH 7.4, 12.5 mM NaCl, 0.05 mM EDTA, 0.05 mg/ml tRNA, 0.05 mg/ml heparin, 0.01% Igepal, 10 µl, 125 fmol RNA, 4°C 30 min; recombinant protein; label: 32P; letters put together from the description
row,Sequence,binding result
1,GAGACAGAGCGGUGCCUUAGCAGCACGUAAAUAUUGGCGUUAAGAUUCUGAAAUUACCUCCAGUAUUGACUGUGCUGCUGAAGUAAGGUU [pre-miR-16],binds
2,GAGACAGGCCAGGCUGAGGUAGUAGUUUGUACAGUUUGAGGGUCUAUGAUACCACCCGGUACAGGAGAUAACUGUACAGGCCACUGCCUUGCCAGG [pre-let-7g],binds
